Reference: patent US20230277569A1, “Compositions and Methods for Treating, Ameliorating and/or Preventing Cancer and Kits for the Same” (priority 2022, published 2023)

Assay: Phase I, cytochrome P450-mediated human liver microsome metabolism
Conditions: 0.5 μM; human liver microsomes

For `Cc1ncc2n1-c1ccc(Cl)cc1C(c1ccccc1F)=NC2` [Midazolam, reference compound], which “half-life (t½)” value is on record?
Its value is 17 min.
